Test results taken from publication PMC10130750, “The motor domain of the kinesin Kip2 promotes microtubule polymerization at microtubule tips” (The Journal of Cell Biology, 2023).
These are yes or no findings as the source states them, for the method shown.

Target: T1, coiled-coil domain of Bik1 (Bik1-CC, residues 182–396) (S. cerevisiae) (UniProt P11709)
T1 sequence: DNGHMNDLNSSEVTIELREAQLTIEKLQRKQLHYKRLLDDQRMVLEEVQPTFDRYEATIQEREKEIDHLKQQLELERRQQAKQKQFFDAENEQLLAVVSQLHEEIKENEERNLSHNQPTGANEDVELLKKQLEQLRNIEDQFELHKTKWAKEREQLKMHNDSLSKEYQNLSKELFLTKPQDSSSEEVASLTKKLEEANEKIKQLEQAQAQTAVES
Assay: SEC-MALS; 25°C; 20 mM Tris-HCl pH 7.5, 150 mM NaCl, 1 mM DTT; 4–8 mg/ml of each protein applied, single proteins and mixtures (Bik1-CC, Kip2-NMD, Kip2-NMD-ΔT); both purified

- binding: no binding (tested: 4–8 mg/ml applied)
B1: Kip2-NMD-ΔT (truncated non-motor domain of Kip2, residues 504–645) (domain or fragment, S. cerevisiae, UniProt P28743 504-645, looked up)
chain: SNGNNDGDKDRTIELLRRQLEEQRRMISELKNRSNIGEPLTKSSNESTYKDIKATGNDGDPNLALMRAENRVLKYKLENCEKLLDKDVVDLQDSEIMEIVEMLPFEVGTLLETKFQGLESQIRQYRKYTQKLEDKIMALEKS
notes: Kip2 non-motor domain lacking the C-terminal tail, S. cerevisiae, residues 504–645; Dimer by SEC-MALS (34 kD); also called Kip2-NMD-∆T; source: E. coli BL21 (DE3), purified (IMAC, SEC); not shown: His6, N-terminal, cleaved
